Measured values taken from paper doi:10.1101/2020.03.02.973685.
Like-named read-outs stand apart in the source and are kept apart here. Results are given in words; binding and its absence hold for the method and conditions named. Binding seen in cells or lysates may run through a third protein. Some results given as binding are weak or reduced against the parent protein; the word gives no strength. For some of these results: Where a sequence is shown, tags or fusion partners need not be part of it.

Protein sequences, listed by entry. Tags and fused reporters are not part of them.
UniProt P53115, whole entry: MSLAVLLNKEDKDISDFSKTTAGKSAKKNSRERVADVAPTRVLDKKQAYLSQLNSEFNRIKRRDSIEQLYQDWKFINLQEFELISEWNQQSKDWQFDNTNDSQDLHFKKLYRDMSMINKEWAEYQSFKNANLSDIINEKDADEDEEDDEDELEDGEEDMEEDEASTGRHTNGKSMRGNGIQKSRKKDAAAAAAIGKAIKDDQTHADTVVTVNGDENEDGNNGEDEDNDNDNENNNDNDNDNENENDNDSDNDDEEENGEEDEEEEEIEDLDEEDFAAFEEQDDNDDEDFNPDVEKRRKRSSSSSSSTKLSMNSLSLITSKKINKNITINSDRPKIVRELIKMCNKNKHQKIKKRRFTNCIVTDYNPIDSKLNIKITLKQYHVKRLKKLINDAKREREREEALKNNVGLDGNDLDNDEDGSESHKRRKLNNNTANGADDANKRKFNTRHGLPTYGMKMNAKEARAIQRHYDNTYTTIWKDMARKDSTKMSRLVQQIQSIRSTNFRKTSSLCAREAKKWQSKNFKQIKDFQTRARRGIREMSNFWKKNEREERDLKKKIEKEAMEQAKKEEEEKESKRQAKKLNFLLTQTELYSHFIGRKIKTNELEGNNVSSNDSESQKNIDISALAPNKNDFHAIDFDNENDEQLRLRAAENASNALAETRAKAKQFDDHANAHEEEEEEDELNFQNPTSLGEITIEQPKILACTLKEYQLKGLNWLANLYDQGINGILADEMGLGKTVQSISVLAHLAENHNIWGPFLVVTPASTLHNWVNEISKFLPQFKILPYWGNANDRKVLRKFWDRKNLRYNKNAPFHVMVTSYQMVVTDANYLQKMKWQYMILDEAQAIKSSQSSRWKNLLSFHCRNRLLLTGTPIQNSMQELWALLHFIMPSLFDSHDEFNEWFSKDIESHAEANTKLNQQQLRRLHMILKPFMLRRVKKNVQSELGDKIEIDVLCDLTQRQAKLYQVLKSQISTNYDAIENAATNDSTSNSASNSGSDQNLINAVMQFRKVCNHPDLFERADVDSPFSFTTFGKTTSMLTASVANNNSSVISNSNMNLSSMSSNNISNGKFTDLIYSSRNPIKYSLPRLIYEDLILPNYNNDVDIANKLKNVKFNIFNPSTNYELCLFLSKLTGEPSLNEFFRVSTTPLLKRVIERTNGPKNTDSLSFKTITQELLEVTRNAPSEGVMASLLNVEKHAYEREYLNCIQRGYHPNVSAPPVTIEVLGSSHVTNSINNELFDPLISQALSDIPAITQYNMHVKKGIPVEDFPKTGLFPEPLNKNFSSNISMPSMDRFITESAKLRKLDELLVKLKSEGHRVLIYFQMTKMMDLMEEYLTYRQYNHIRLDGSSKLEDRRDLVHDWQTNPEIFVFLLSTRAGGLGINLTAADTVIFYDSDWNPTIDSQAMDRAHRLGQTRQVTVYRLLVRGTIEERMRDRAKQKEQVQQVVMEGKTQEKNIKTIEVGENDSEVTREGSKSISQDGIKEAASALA
UniProt P39081, whole entry: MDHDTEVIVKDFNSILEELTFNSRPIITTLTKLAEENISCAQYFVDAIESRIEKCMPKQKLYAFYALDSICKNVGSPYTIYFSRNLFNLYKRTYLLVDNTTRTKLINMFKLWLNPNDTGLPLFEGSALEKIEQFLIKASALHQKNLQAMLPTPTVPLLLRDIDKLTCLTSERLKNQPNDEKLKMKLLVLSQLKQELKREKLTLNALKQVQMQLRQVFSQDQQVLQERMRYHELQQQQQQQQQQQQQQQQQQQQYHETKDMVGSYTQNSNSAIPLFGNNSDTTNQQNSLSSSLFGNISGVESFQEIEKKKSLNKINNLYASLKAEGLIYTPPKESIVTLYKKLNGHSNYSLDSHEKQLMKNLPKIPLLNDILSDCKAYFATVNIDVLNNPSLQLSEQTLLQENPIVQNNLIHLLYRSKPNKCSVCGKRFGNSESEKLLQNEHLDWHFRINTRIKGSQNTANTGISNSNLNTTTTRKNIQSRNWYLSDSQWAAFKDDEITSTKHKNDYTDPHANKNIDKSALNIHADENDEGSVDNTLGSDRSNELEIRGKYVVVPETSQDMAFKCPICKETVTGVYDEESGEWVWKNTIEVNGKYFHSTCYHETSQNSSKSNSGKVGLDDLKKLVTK
UniProt P04050, whole entry: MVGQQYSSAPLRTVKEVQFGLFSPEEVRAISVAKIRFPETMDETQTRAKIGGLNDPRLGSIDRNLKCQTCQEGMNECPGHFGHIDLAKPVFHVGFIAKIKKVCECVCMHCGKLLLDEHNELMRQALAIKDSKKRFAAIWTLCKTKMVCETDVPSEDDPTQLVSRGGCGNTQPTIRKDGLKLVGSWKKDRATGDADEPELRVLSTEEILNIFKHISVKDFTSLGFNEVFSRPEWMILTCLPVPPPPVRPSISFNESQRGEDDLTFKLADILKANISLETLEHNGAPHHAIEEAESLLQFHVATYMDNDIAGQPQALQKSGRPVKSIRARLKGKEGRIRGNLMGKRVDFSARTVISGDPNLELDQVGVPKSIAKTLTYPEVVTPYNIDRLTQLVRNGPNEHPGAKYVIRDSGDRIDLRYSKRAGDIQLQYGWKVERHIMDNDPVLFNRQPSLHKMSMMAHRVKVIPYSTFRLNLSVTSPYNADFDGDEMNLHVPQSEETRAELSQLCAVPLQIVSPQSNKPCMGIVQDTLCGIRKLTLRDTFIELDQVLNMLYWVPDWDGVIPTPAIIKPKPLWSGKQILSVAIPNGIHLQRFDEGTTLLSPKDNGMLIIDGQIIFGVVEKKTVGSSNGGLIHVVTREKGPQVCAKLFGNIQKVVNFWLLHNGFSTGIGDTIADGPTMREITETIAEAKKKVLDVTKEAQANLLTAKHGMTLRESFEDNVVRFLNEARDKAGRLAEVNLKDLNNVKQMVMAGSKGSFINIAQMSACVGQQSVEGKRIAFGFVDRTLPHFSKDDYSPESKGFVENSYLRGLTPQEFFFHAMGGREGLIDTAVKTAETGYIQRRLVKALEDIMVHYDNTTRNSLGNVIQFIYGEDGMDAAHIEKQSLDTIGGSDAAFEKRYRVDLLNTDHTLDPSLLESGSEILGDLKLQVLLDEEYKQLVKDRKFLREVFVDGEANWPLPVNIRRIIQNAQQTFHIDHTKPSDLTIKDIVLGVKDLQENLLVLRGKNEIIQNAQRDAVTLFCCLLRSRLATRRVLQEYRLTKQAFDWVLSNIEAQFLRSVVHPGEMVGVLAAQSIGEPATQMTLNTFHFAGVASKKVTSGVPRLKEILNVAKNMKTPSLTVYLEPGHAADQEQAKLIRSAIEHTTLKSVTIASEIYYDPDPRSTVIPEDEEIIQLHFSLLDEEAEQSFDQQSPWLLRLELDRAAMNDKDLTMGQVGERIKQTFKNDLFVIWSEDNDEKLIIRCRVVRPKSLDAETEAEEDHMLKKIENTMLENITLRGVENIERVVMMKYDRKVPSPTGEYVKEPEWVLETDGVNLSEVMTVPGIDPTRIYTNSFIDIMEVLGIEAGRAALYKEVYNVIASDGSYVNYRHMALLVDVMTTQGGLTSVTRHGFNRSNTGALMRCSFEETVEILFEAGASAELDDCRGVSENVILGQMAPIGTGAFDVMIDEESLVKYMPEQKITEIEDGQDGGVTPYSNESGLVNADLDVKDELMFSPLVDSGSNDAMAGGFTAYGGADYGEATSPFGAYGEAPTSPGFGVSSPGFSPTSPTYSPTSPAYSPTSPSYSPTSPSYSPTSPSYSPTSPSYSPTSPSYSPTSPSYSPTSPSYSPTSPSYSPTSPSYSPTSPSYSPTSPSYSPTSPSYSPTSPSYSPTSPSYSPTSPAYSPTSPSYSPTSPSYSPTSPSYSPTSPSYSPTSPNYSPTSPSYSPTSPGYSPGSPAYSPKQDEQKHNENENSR

Experiments:
Assay in all cases: co-IP
[1] = target: Ino80 tagged with FLAG epitope (S. cerevisiae) (UniProt P53115)
Nab2-HA (S. cerevisiae) [2] = target: T1, Nab2-HA (S. cerevisiae) (UniProt P32505)
T1 sequence: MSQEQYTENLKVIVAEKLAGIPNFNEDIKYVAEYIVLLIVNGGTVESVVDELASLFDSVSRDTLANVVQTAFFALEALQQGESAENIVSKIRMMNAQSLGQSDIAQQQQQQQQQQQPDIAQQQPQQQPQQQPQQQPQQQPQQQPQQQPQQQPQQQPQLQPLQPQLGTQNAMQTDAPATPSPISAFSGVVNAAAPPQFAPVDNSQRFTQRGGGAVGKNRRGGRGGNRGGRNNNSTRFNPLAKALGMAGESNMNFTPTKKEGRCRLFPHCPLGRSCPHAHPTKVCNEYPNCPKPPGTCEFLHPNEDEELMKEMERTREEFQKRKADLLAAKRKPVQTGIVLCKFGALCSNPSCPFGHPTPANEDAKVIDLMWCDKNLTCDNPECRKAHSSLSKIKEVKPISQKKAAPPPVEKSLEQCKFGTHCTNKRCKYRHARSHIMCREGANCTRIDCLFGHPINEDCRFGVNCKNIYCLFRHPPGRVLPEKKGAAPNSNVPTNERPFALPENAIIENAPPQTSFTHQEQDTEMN

[3] = target: Ino80 tagged with FLAG epitope (S. cerevisiae) (UniProt P53115); remark: listed apart in the source
Nab2-HA (S. cerevisiae) [4] = target: T1, Nab2-HA (S. cerevisiae); remark: listed apart in the source

Pcf11-HA (from UniProt P39081 1-626)
binding [1]: no binding

Rpb1 (from UniProt P04050 1-1733)
binding (Nab2-HA (S. cerevisiae) [2]): binds

B1: Nrd1-HA (protein, UniProt P53617 1-575)
chain: MQQDDDFQNFVATLESFKDLKSGISGSRIKKLTTYALDHIDIESKIISLIIDYSRLCPDSHKLGSLYIIDSIGRAYLDETRSNSNSSSNKPGTCAHAINTLGEVIQELLSDAIAKSNQDHKEKIRMLLDIWDRSGLFQKSYLNAIRSKCFAMDISNNTANTASQQLSLDPKQRSKQILSNLKKSPPLNLNISLPTDLTSTDPAKQQAALFQVIAALQKHFKTLPSHTSVGTVAPPQAHTITEYGSRRERERERERYNSRRNRSRSPPAPFSQPSTGRKDRYPSVAQDQYSIGAPNTTFGTNNHHLYPDELNVSNNPHYRPKPVSYDSTLPPDHIKVYSRTLFIGGVPLNMKEWDLANVLKPFAEVQSVILNNSRKHAFVKVYSRHEAENVLQNFNKDGALPLRTRWGVGFGPRDCCDYQHGYSIIPMHRLTDADKKWSVSAQWGGTSGQPLVTGIVFEEPDIIVGEGVSSKAISQKMPTDSGRNGPRSGKPNKSGSISSISPVPYGNAPLASPPPQQYVQPMMQQPYGYAPNQPLPSQGPAAAAPPVPQQQFDPTAQLNSLMNMLNQQQQQQQQS
binding [3]: binds

B2: Arp5 (protein, UniProt P53946 1-755)
chain: MSSRDASLTPLKAVVIDDPPLRQTPEPFDEQSAYNPQSPIAIDFGSSKLRAGFVNHATPTHIFPNALTKFRDRKLNKNFTFVGNDTLLDQAVRSQSRSPFDGPFVTNWNLTEEILDYTFHHLGVVPDNGIPNPILLTERLATVQSQRTNWYQILFETYNVPGVTFGIDSLFSFYNYNPSGNKTGLVISCGHEDTNVIPVVDGAGILTDAKRINWGGHQAVDYLNDLMALKYPYFPTKMSYLQYETMYKDYCYVSRNYDEDIEKILTLENLDTNDVVVEAPFTEVLQPQKTEEELRIQAEKRKETGKRLQEQARLKRMEKLVQKQEEFEYFSKVRDQLIDEPKKKVLSVLQNAGFDDERDFKKYLHSLEQSLKKAQMVEAEDDSHLDEMNEDKTAQKFDLLDIADEDLNEDQIKEKRKQRFLKASQDARQKAKEEKERVAKEEEEKKLKEQQWRETDLNGWIKDKRLKLNKLIKRRKEKLKLRDEMKDRKSQVSQNRMKNLASLAEDNVKQGAKRNRHQATIDNDPNDTFGANDEDWLIYTDITQNPEAFEEALEYEYKDIVELERLLLEHDPNFTEEDTLEAQYDWRNSILHLFLRGPRPHDSENIHEQHQMHLNVERIRVPEVIFQPTMGGQDQAGICELSETILLKKFGSQPGKLSQTSIDMVNNVLITGGNAKVPGLKERIVKEFTGFLPTGTNITVNMSSDPSLDAWKGMAALARNEEQYRKTVISKKEYEEYGPEYIKEHKLGNTKYFED
binding (Nab2-HA (S. cerevisiae) [4]): binds
